The results in this text go back to paper PMC7665200, “Mus81-Mms4 endonuclease is an Esc2-STUbL-Cullin8 mitotic substrate impacting on genome integrity” (Nature Communications, 2020).

No constants are given. Whether binding was seen depends on the method and setting. Binding seen in cells or lysates may run through a third protein. Some results given as binding are weak or reduced against the parent protein; the word gives no strength. Where a sequence is shown, tags or fusion partners need not be part of it.

The target of one experiment is T1, GST-Esc2 (Saccharomyces cerevisiae, UniProt Q06340 1-456).
T1 construct: Esc2, Saccharomyces cerevisiae, full-length gene cloned into BamHI/SalI of pGEX-6P-2; pGEX-6P-2 should place GST at the N-terminus (surmised from the vector); also called recombinant glutathione S-transferase (GST)-Esc2; GST-tagged Esc2; source: E. coli BL21 (DE3), purified (glutathione-Sepharose 4B, eluted with reduced glutathione, dialysed)
T1 sequence (looked up): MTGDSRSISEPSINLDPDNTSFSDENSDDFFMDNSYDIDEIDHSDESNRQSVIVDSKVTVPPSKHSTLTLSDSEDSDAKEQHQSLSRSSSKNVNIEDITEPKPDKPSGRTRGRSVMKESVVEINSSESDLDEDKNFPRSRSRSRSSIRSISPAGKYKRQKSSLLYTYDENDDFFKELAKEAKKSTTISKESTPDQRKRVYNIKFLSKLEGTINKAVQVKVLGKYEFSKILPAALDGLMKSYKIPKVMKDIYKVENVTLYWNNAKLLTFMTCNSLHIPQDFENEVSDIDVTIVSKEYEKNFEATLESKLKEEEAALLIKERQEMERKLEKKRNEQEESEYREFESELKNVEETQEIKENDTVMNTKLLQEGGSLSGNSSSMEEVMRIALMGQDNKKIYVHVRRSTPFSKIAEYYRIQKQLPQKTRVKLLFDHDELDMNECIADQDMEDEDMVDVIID
Description: pull-down; about 5 ug GST-Esc2 immobilised on glutathione-Sepharose 4B, incubated with about 2.5 mg yeast total cell lysate at 4 °C for 2-3 h in Tris pH 7.5, 150 mM NaCl, 1 mM DTT, 1 mM EDTA, 10% glycerol, 0.1% Triton X-100; washes up to 350 mM NaCl; western blot; only the target purified.

In experiment [1] the target is T2, Mus81-Mms4 complex with internal truncations Mms4 (Δ541-555) and Mus81 (Δ121-135) (S. cerevisiae (W303-derived yeast)) (UniProt P38257+Q04149).
T2 sequence 1: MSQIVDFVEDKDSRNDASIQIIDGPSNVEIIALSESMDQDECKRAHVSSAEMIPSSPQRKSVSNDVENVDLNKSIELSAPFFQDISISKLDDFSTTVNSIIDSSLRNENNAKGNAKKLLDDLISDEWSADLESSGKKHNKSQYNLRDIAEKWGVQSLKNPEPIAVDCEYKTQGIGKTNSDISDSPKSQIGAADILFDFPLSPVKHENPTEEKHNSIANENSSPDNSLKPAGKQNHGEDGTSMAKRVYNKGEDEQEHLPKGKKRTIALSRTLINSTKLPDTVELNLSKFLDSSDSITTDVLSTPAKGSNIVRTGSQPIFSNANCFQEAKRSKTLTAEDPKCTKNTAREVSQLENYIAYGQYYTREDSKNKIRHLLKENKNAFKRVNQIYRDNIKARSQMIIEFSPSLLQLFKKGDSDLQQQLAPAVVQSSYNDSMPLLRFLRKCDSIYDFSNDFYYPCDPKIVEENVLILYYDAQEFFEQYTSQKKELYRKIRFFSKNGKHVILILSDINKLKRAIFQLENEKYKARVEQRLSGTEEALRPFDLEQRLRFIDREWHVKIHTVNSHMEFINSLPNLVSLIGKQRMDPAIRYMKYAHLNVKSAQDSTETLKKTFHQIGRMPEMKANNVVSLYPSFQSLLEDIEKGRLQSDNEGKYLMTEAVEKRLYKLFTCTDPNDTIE
T2 sequence 2: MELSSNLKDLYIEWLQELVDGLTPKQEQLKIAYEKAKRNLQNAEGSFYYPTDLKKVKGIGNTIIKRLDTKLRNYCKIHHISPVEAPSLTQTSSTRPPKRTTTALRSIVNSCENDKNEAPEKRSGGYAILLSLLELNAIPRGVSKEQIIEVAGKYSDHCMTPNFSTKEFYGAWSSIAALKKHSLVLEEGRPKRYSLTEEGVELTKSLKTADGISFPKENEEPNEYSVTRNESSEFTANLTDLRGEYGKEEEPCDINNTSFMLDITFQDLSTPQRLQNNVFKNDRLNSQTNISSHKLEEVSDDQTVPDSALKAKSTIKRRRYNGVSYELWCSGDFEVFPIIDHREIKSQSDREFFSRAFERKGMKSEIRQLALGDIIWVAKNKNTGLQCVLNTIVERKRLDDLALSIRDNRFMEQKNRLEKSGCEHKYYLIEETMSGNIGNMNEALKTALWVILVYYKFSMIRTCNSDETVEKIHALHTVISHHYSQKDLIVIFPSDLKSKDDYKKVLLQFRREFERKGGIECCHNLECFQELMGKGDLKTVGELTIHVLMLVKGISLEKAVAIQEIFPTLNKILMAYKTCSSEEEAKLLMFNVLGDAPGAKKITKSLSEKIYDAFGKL
The experiment in a line: co-IP; lysate of yeast with HA-tagged Mms4/Mus81 and FLAG-tagged Esc2; HA beads overnight at 4 °C; 50 mM HEPES, 50 mM KCl, 0.1% NP40, 1.5 mM MgCl2, 1.5 mM MnCl2, 10% glycerol; western blot. A general note: A western blot detects proteins with antibodies after separation by electrophoresis.

B1: Cul8-FLAG (protein, UniProt P47050 1-842)
chain: MINESVSKREGFHESISRETSASNALGLYNKFNDERNPRYRTMIAELHEFFHLTLAETITETDVKELECNKEKAAKFRKLMPKMLNNCRELTQRKSYIPYNSEFNGNDEKQKKFQLLHQHQIVLSFQEFCDELAKLIIDAHVLSFLTRCDYSYEIIPKNWTSFYKLFQYVMGAVGPIISYVPVNYPMIRKELGFETLTIFQYYDSKLFECMKSHFGREFSTLVSATIHHYIHMFPITNTMLEKEVPMLRIMSNCNFSIEGLSPKDFYMKTLRQYYCEESNLRPRLETFKNFKVLLTRNALLASLFSPEWVSDANDLFISHLLLNKKSISEYIEIGKDTYDEEKERYFKTETHFSLLMFRNAFEAKNMLSKFKEFCDDAVSEKLKAAYGSNHDTERLFDEVVQLANVDHLKIYSDSIEYHLCNLLGSTSKAIEQYVKYFESHLFIIVRKIKTTKKDLPRDMKIKYLNENLPILRLKFVNLPTFPNFFERSIFRKTILQSDQNSSFIKDILPVYKDSLMELFKQRIITNVSQEDEMRYRDQYQPYLSQFFQPVEVMADLRIKYASFLSFYENIEAAVKFGKTYNENNSKSFFPLIFDRERIPKVFQQSNEVKKNFVLPQEMDDTWNQFLRNYHEQNKVEDSDASKKELYPMWNLHHCEVESPYIIQDGTNLIFELTLFQTCVLTLFNESDHLTLQVISEQTKLAYKDLALVLKSFCNYKILTRDIDNTYSINESFKPDMKKVKNGKLRVVLPRTASLQSSNTGGERTSSAHHEGSNSQWTQELLKACITRSVKSERNGLDYDHLFETVKQQIKGFSVGEFKDALAKLLRDKFITRDESTATYKY
On to B1, for which the binding result with GST-Esc2 is listed as “binds”.

B2: Mms1-FLAG (protein, UniProt Q06211 1-1407)
chain: MLGLRTHGLDRYEHYIRRPSDFGKLELQDWLNHKSFRVSPNLLIDSSTTREWNEPELFYQNTEDETWVRPCVGPKLEPSMMMLRYHDSNIGQMPQFCYPISSPINFKPVLKYILQERSELSDGFPQKYNTLIGSLFDIDKNPETLDDSDIEALDDIEMSSDSGNVKEPKIELQALEEIQQKHFSLIVSNNGIFQTGSTSITYIQSGISGSIAIKPNNVAILILLTQPSGHLLSILPLDDGKETYLLQYWNLGQKGQWNIIKHQNEKQFVLIHKELGICKFFEFHLPFTFQLVNNLTLTDSVIMNGSFFPTNYTDLDPYFIIFITAIRYERIVYFVIEWNNNEIKKKEVYQLTVFDGEKTNMTIPIGLNACLVETPLKFSLVSANQIMSGETEFHSFQLKALKGIKSFFPAPLLLLKLQELHPHTFKKFQYCTIISSSTGNICFCVTERSTIVNGNLKFYELTRFKGLKSISPLPSNPINLDSRSSSYVLVVISFSRTLELTLSLEDLRCLDKKDVIKPLKNITFKHTIDSSTEENSQILAFTSSKFYNTHTGSNINDTRNSQVWLTSPNAITQPCIDYKLRKTHQLIHLKQFQIFRHLRIWKCKNLDIALLQRLGINQSNTESSLIFATDAVSNNRIFLLDLTMTTTIDNDDPVQGLINIEDLLCDTENETILLNFTKNNLIQVTRDTIYIDPIGGDKELRKISPGWEFENVTYNDGILIVWNAGLGCVSYIENIDAVDESGALVSNLSSSKGMSKFFKQLGTVTSVNFQIKESTDDPTKYDIWILLPDCVIRTPFSDWISDSLDFSDVYILSVQQALINGPYFCSLDYESYFEVHTLQNNCFKKGSRCTSRVNFQGKDIKFRSFGVNQCLAFSAFEIFVINLTPIHDSRELDFYKLKLPHLGNNNSILEVCPDIENNQLFILYSDGLRILELSYLTSNNGNFLLKSTRSKNKKFLYLDKINRMLVLNQDLREWECIRLSDGKAVGLDSQLLKDDSEEILEIKELPIATEDNPLEKKTVLLISFTSSLKLVLLTAAKNKISNQIIDSYKLDNSRLLNHLVITPRGEIFFLDYKVMGTDNEMSFNKLKVTKHCIDQEERNNTTLRLTLETRFTFKSWSTVKTFTVVGDNIIATTNMGEKLYLIKDFSSSSDESRRVYPLEMYPDSKVQKIIPLNECCFVVAAYCGNRNDLDSRLIFYSLPTIKVGLNNETGSLPDEYGNGRVDDIFEVDFPEGFQFGTMALYDVLHGERHVNRYSEGIRSENDEAEVALRQRRNLLLFWRNHSSTPKPSLRRAATIVYEDHVSSRYFEDISSILGSTAMRTKRLSPYNAVALDKPIQDISYDPAVQTLYVLMADQTIHKFGKDRLPCQDEYEPRWNSGYLVSRRSIVKSDLICEVGLWNLSDNCKNTV
Turning to B2, the binding entry with GST-Esc2 is reported as “binds”.

B3: FLAG-tagged Esc2 (protein, UniProt Q06340 1-456)
chain: T1 sequence (looked up)
Consider B3, for which the binding result in experiment [1] is given as “binds”.
